Our source for the binding signal values is paper PMC7819943, “Rice protein-binding microarrays: a tool to detect cis-acting elements near promoter regions in rice”.

The chains behind the UniProt entries cited, without tags or fusion partners.
UniProt Q0JBA9, entry or part of it: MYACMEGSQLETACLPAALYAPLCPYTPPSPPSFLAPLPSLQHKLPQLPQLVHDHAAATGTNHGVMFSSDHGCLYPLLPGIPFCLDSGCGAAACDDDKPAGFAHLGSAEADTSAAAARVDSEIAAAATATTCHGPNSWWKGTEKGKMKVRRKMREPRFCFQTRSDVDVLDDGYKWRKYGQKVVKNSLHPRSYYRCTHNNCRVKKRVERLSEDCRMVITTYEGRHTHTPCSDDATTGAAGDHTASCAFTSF

The other results are listed elsewhere or left out.

This test concerns the target OsWRKY34 (Oryza sativa, UniProt Q0JBA9 1-250). The experiment in a line: protein-binding microarray (RPBM); PBS, 2% BSA, 51.3 ng/ul salmon testes DNA, 50 uM zinc acetate, 200 nM TF, 25 C, 1 h; high values mean tight binding. The settings on record: protein: recombinant; tags: N-terminal polyhistidine and DsRed monomer fusion (pET32a); label: CyDye5-dUTP incorporated in the synthesized complementary strand; 3' TTTTT single-stranded linker to array surface; dsDNA, one strand shown. The method in brief: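 Transcription factors were made in E. coli BL21-CodonPlus as N-terminal fusions to a polyhistidine tag and DsRed, then purified on Ni–NTA. After primer extension with Cy5-dUTP and blocking with 2% BSA, a custom Agilent array was exposed for 1 h at 25 °C to 200 nM protein in PBS, 2% BSA, salmon testes DNA and 50 µM zinc acetate. Washed arrays were scanned on an Axon 4000B, and the binding signal is per-feature fluorescence intensity in arbitrary units.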
Consider “CGTAGCTCCAAGCCTCCAATCCTCGCATATTGTCACGGCCCGGAGTCACCTAGTGCAG”, for which the binding signal is 9320 fluorescence intensity (a.u.).
Consider “GCTCACACATTACTCATAATATTGTTTCATTTTCTAACACCGGAGTCACCTAGTGCAG”, for which the binding signal is 10300 fluorescence intensity (a.u.).
In the case of “TGCCCCATCGCCGCCGCTGCCGCCCATCTTCTCCACTGCTCGGAGTCACCTAGTGCAG”, the binding signal was 8970 fluorescence intensity (a.u.).
The value for “CCATTGCACACACCTCACTTGCTCTTCTCTCTCTCTCTATCGGAGTCACCTAGTGCAG” was 13800 fluorescence intensity (a.u.); that for “TCCATTGCCGCTGGTCGCACCGTCCTCGACTTCCGCGTCCCGGAGTCACCTAGTGCAG” was 8460 fluorescence intensity (a.u.); that for “CGTCTCTAAATACTTGACGCCGTTGACTTTTTTAAATATGCGGAGTCACCTAGTGCAG” was 26900 fluorescence intensity (a.u.).
“TTCTTCCTCGCCGCCGCCGCCGTCGTCCCACCGGCGCCGCCGGAGTCACCTAGTGCAG”: the binding signal is 10000 fluorescence intensity (a.u.).
With “AGAGCCGCTTGTTGCTCCGTGCTATTTTTTCGTTTCTGGACGGAGTCACCTAGTGCAG”, the binding signal is 9630 fluorescence intensity (a.u.).
In the case of “TCGTCTCGTCTCGTCTCCCTCGCGAGAGCTTCCCACCATTCGGAGTCACCTAGTGCAG”, the binding signal was 9290 fluorescence intensity (a.u.).
The figure for “ACCACTCTGCACTTCCGCTAGTCCCACTCCCACCACGGCGCGGAGTCACCTAGTGCAG” is 9220 fluorescence intensity (a.u.); for “CGCTTTGCCTTTTGCTGCCCGCTGCCTGCTTTGCCCACGACGGAGTCACCTAGTGCAG” it is 10500 fluorescence intensity (a.u.); for “AATGTGTGTGTTGTACCCAATTTATTTAGCCAAAATGAAACGGAGTCACCTAGTGCAG” it is 9000 fluorescence intensity (a.u.).
For the sequence “GAAAAAAAAATGCGTTGACCGAGGGAAGACGAGATCAGTGCGGAGTCACCTAGTGCAG”, the binding signal was 10400 fluorescence intensity (a.u.).
On to “GTTTTGCTATGTGGATTGATCGTTTGCTGTGTTCGTTGGACGGAGTCACCTAGTGCAG”, for which the binding signal was 10700 fluorescence intensity (a.u.).
Regarding “GCTTCTTTAATCGTTGTTGATGTTAAATTCTAATTTACCACGGAGTCACCTAGTGCAG”, the binding signal is 9630 fluorescence intensity (a.u.).
With “CATTCGCTTTTCCCACCTAACTCTACTACTCATCCAATCACGGAGTCACCTAGTGCAG”, the binding signal was 8380 fluorescence intensity (a.u.).
The value for “CATCTGTCCCATCTTGTTTTTAATCCTGTGTCCGTCATTGCGGAGTCACCTAGTGCAG” was 8920 fluorescence intensity (a.u.); that for “CACATTCCGTCCTGCTACCGTCACGTCTCCATAAAGCCATCGGAGTCACCTAGTGCAG” was 9770 fluorescence intensity (a.u.); that for “CACACACATGGTTCCTCCTTCCCTTTGACTCCACCATGCTCGGAGTCACCTAGTGCAG” was 8150 fluorescence intensity (a.u.).
As to “CTGATTACCTCTTGTCTAAACTAACGTCCTCAAGTGGAATCGGAGTCACCTAGTGCAG”, the binding signal is 8140 fluorescence intensity (a.u.).
As for “ACGTGGGGTGATTCTACGACCCGCCTCGTCCGCTTACTTACGGAGTCACCTAGTGCAG”, the binding signal is 8400 fluorescence intensity (a.u.).
The figure for “GTATTATATTATTAATTAATCGCCGTCACCTCGTCGCCATCGGAGTCACCTAGTGCAG” is 8090 fluorescence intensity (a.u.).
“GTTTCTAGCTTTAACTTTTTGTTGGCTGCCTTTTGTTGTTCGGAGTCACCTAGTGCAG”: the binding signal was 11700 fluorescence intensity (a.u.).
With “TTGTTAATGCTAATTTTATCAACATGTGCTTTTCTTTTTACGGAGTCACCTAGTGCAG”, the binding signal is 9500 fluorescence intensity (a.u.).
The value for “CTTCTCACTCTTCTCGCGTCCTTGCAGGCTTTTTCCTCCACGGAGTCACCTAGTGCAG” was 9530 fluorescence intensity (a.u.); that for “TTGTCAATTGGCACTCTGAAAGTGCCTGCGTGGTGGTTCTCGGAGTCACCTAGTGCAG” was 9390 fluorescence intensity (a.u.).
As for “TCTCGTTATTGGTGTGTTACGAGTAACCTGTGTGTTGTTACGGAGTCACCTAGTGCAG”, the binding signal is 10900 fluorescence intensity (a.u.).
Regarding “GCCCACTCCTCCTTCTCGCCGCTGGCGACTCTGTTGGGCCCGGAGTCACCTAGTGCAG”, the binding signal is 8820 fluorescence intensity (a.u.).
The figure for “ACTTGTCACCACGGGGCGGCACACTACACTCCACGCGAGCCGGAGTCACCTAGTGCAG” is 8210 fluorescence intensity (a.u.); for “TTTGCAATCATTTCCTGTACCTTGTCCAGATTCTAGCTCTCGGAGTCACCTAGTGCAG” it is 9710 fluorescence intensity (a.u.).
For “TAGCCTACATGTCTCTTTTATTTCTCTTTGTTCGGTTATTCGGAGTCACCTAGTGCAG”, the binding signal was 12900 fluorescence intensity (a.u.).
The value for “ACACAGCCTTACTGTAGTTTTCAGCTTCTGAATGTGCTTCCGGAGTCACCTAGTGCAG” was 8050 fluorescence intensity (a.u.).
“TCCCATCTCTCGAATCGACGGCTTCCGCGTCTTCGCGAAGCGGAGTCACCTAGTGCAG”: the binding signal was 9330 fluorescence intensity (a.u.).
On to “CTGCATATCCGCTTGCTTCCACAGTTCCACTTGCATCTTGCGGAGTCACCTAGTGCAG”, for which the binding signal was 9190 fluorescence intensity (a.u.).
In the case of “TTTGGTTTGGTTAGTTTCAAGGTCTCGGCCCCATGACTAGCGGAGTCACCTAGTGCAG”, the binding signal was 9790 fluorescence intensity (a.u.).
As for “GGTATTTAAACAACCATACTAACGGACCCATCGTTTCGCTCGGAGTCACCTAGTGCAG”, the binding signal is 8530 fluorescence intensity (a.u.).
The figure for “GCTCGGCGGCGCCGCGGCGGCGGTGGCGGAGGCGGGGATGCGGAGTCACCTAGTGCAG” is 8910 fluorescence intensity (a.u.); for “AACTCCTGGAACGGTTTTTGTACCCTTGTGCCGGCCGAGACGGAGTCACCTAGTGCAG” it is 9810 fluorescence intensity (a.u.).
With “AATTACTATAACACATCTTCCTAACAAATGCACCTCAATACGGAGTCACCTAGTGCAG”, the binding signal is 8050 fluorescence intensity (a.u.).
The figure for “CAATTGATCCCTGTATTGGTCCGCTTAGGTTGTTCAATGACGGAGTCACCTAGTGCAG” is 9690 fluorescence intensity (a.u.); for “GAAGATGCATTCTTGATTCCGTGTGTTTCTCCTTGCTTATCGGAGTCACCTAGTGCAG” it is 11900 fluorescence intensity (a.u.).
“TTTCTTTCTTTCTTTCTTGGGATCTTTTCCTTCTTTTTTTCGGAGTCACCTAGTGCAG”: the binding signal was 12600 fluorescence intensity (a.u.).
Turning to “TCTACCTTGGTTTTTCATCCATAATAAGTTTAGTATTTCTCGGAGTCACCTAGTGCAG”, the binding signal is 9480 fluorescence intensity (a.u.).
Turning to “GTAGACCAGCGAGCAAAGACCCACTCCACCACACTTCCATCGGAGTCACCTAGTGCAG”, the binding signal is 10300 fluorescence intensity (a.u.).
Regarding “GTGGTTGAATGTGCAGAGGTTTTATTCGCGTGTCACGCTTCGGAGTCACCTAGTGCAG”, the binding signal was 12000 fluorescence intensity (a.u.).
With “CTTCTCCTTTGGCTTTGTGTTGCATTTTCAGTACCAAGAACGGAGTCACCTAGTGCAG”, the binding signal was 8430 fluorescence intensity (a.u.).
Take “ATTGGAGTGTTTCGATTTGTCCATCGTGTGTAATATTCAGCGGAGTCACCTAGTGCAG”: the binding signal is 9310 fluorescence intensity (a.u.).
“CCCGGTTTTCCTTATTAACTAGGCCAACTCTCTTCTTCCACGGAGTCACCTAGTGCAG”: the binding signal is 8820 fluorescence intensity (a.u.).
The value for “TCTCTACTCTCGGTCTTCTCTCATCGCTCGCCTGTATGTCCGGAGTCACCTAGTGCAG” was 11000 fluorescence intensity (a.u.); that for “GCCCCACTTTAAACATCTACTTGAATGCTTAGACCACTTTCGGAGTCACCTAGTGCAG” was 9960 fluorescence intensity (a.u.).
The figure for “GCAGATGCCATATACTAATTGTACTACATCTCAATCCTCACGGAGTCACCTAGTGCAG” is 8570 fluorescence intensity (a.u.); for “AAATAATCTTACTTGGATTGTCTCTGTGTTGCTAGGATAACGGAGTCACCTAGTGCAG” it is 15700 fluorescence intensity (a.u.).
Consider “CCTCCTTGGTCACAGCGGCCGCCCACTTCTGCCCAAATCGCGGAGTCACCTAGTGCAG”, for which the binding signal was 8670 fluorescence intensity (a.u.).
Consider “AACATCTCCAAGGAGGAAACGGCACCCACAGGCGTCGATGCGGAGTCACCTAGTGCAG”, for which the binding signal was 8140 fluorescence intensity (a.u.).
